Assay results from patent publication US20240425876A1 (CHIGENOVO, published 2024).
Results are given in words; binding and its absence hold for the method and conditions named. In cells and extracts the contact can be indirect. Some results given as binding are weak or reduced against the parent protein; the word gives no strength. Tags and fused reporters may be left off the sequences shown.

T1: C-terminal truncated version (aa 1348-2273) of ABCA4 with a Flag tag at its C-terminus (human) (UniProt P78363)
T1 sequence: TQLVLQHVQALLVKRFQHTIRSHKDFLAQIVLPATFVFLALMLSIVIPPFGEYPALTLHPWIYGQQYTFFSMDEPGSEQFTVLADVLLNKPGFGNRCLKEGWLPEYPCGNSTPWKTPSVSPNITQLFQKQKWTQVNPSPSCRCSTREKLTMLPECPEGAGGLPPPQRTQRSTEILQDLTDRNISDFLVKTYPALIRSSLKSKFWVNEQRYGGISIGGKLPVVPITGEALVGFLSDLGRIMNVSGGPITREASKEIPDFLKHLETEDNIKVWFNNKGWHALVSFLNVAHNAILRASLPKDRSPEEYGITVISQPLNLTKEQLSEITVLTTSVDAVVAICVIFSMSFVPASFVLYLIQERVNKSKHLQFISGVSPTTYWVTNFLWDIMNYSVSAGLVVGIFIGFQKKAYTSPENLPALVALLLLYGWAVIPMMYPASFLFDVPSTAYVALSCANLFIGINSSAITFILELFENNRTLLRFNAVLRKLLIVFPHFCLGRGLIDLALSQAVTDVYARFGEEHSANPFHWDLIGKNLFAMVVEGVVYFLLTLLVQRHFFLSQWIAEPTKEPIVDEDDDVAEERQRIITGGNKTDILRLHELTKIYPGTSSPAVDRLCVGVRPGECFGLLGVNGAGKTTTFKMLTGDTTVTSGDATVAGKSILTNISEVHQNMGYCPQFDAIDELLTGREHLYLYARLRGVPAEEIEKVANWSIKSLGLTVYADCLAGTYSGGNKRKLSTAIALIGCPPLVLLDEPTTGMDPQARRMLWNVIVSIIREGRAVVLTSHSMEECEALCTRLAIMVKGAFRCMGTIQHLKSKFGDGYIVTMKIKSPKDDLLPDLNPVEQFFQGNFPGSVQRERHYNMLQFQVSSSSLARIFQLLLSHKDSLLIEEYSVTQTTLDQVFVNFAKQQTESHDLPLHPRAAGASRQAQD

B1: N1280 (aa 1-1280) N-terminal truncated version of ABCA4 with an HA tag at its C-terminus (protein, not shown: small tags and cut ends)
chain: MGFVRQIQLLLWKNWTLRKRQKIRFVVELVWPLSLFLVLIWLRNANPLYSHHECHFPNKAMPSAGMLPWLQGIFCNVNNPCFQSPTPGESPGIVSNYNNSILARVYRDFQELLMNAPESQHLGRIWTELHILSQFMDTLRTHPERIAGRGIRIRDILKDEETLTLFLIKNIGLSDSVVYLLINSQVRPEQFAHGVPDLALKDIACSEALLERFIIFSQRRGAKTVRYALCSLSQGTLQWIEDTLYANVDFFKLFRVLPTLLDSRSQGINLRSWGGILSDMSPRIQEFIHRPSMQDLLWVTRPLMQNGGPETFTKLMGILSDLLCGYPEGGGSRVLSFNWYEDNNYKAFLGIDSTRKDPIYSYDRRTTSFCNALIQSLESNPLTKIAWRAAKPLLMGKILYTPDSPAARRILKNANSTFEELEHVRKLVKAWEEVGPQIWYFFDNSTQMNMIRDTLGNPTVKDFLNRQLGEEGITAEAILNFLYKGPRESQADDMANFDWRDIFNITDRTLRLVNQYLECLVLDKFESYNDETQLTQRALSLLEENMFWAGVVFPDMYPWTSSLPPHVKYKIRMDIDVVEKTNKIKDRYWDSGPRADPVEDFRYIWGGFAYLQDMVEQGITRSQVQAEAPVGIYLQQMPYPCFVDDSFMIILNRCFPIFMVLAWIYSVSMTVKSIVLEKELRLKETLKNQGVSNAVIWCTWFLDSFSIMSMSIFLLTIFIMHGRILHYSDPFILFLFLLAFSTATIMLCFLLSTFFSKASLAAACSGVIYFTLYLPHILCFAWQDRMTAELKKAVSLLSPVAFGFGTEYLVRFEEQGLGLQWSNIGNSPTEGDEFSFLLSMQMMLLDAAVYGLLAWYLDQVFPGDYGTPLPWYFLLQESYWLGGEGCSTREERALEKTEPLTEETEDPEHPEGIHDSFFEREHPGWVPGVCVKNLVKIFEPCGRPAVDRLNITFYENQITAFLGHNGAGKTTTLSILTGLLPPTSGTVLVGGRDIETSLDAVRQSLGMCPQHNILFHHLTVAEHMLFYAQLKGKSQEEAQLEMEAMLEDTGLHHKRNEEAQDLSGGMQRKLSVAIAFVGDAKVVILDEPTSGVDPYSRRSIWDLLLKYRSGRTIIMSTHHMDEADLLGDRIAIIAQGRLYCSGTPLFLKNCFGTGLYLTLVRKMKNIQSQRKGSEGTCSCSSKGFSTTCPAHVDDLTPEQVLDGDVNELMDVVLHHVPEAKLVECIGQELIFLLPNKNFKHRAYASLFRELEETLADLGLSSFGISDTPLEEIFLKVTEDS
B2: N1280* (aa 1-1280*, 2253-2273) N-terminal truncated version of ABCA4 with an HA tag at its C-terminus (protein, not shown: small tags and cut ends)
chain: MGFVRQIQLLLWKNWTLRKRQKIRFVVELVWPLSLFLVLIWLRNANPLYSHHECHFPNKAMPSAGMLPWLQGIFCNVNNPCFQSPTPGESPGIVSNYNNSILARVYRDFQELLMNAPESQHLGRIWTELHILSQFMDTLRTHPERIAGRGIRIRDILKDEETLTLFLIKNIGLSDSVVYLLINSQVRPEQFAHGVPDLALKDIACSEALLERFIIFSQRRGAKTVRYALCSLSQGTLQWIEDTLYANVDFFKLFRVLPTLLDSRSQGINLRSWGGILSDMSPRIQEFIHRPSMQDLLWVTRPLMQNGGPETFTKLMGILSDLLCGYPEGGGSRVLSFNWYEDNNYKAFLGIDSTRKDPIYSYDRRTTSFCNALIQSLESNPLTKIAWRAAKPLLMGKILYTPDSPAARRILKNANSTFEELEHVRKLVKAWEEVGPQIWYFFDNSTQMNMIRDTLGNPTVKDFLNRQLGEEGITAEAILNFLYKGPRESQADDMANFDWRDIFNITDRTLRLVNQYLECLVLDKFESYNDETQLTQRALSLLEENMFWAGVVFPDMYPWTSSLPPHVKYKIRMDIDVVEKTNKIKDRYWDSGPRADPVEDFRYIWGGFAYLQDMVEQGITRSQVQAEAPVGIYLQQMPYPCFVDDSFMIILNRCFPIFMVLAWIYSVSMTVKSIVLEKELRLKETLKNQGVSNAVIWCTWFLDSFSIMSMSIFLLTIFIMHGRILHYSDPFILFLFLLAFSTATIMLCFLLSTFFSKASLAAACSGVIYFTLYLPHILCFAWQDRMTAELKKAVSLLSPVAFGFGTEYLVRFEEQGLGLQWSNIGNSPTEGDEFSFLLSMQMMLLDAAVYGLLAWYLDQVFPGDYGTPLPWYFLLQESYWLGGEGCSTREERALEKTEPLTEETEDPEHPEGIHDSFFEREHPGWVPGVCVKNLVKIFEPCGRPAVDRLNITFYENQITAFLGHNGAGKTTTLSILTGLLPPTSGTVLVGGRDIETSLDAVRQSLGMCPQHNILFHHLTVAEHMLFYAQLKGKSQEEAQLEMEAMLEDTGLHHKRNEEAQDLSGGMQRKLSVAIAFVGDAKVVILDEPTSGVDPYSRRSIWDLLLKYRSGRTIIMSTHHMDEADLLGDRIAIIAQGRLYCSGTPLFLKNCFGTGLYLTLVRKMKNIQSQRKGSEGTCSCSSKGFSTTCPAHVDDLTPEQVLDGDVNELMDVVLHHVPEAKLVECIGQELIFLLPNKNFKHRAYASLFRELEETLADLGLSSFGISDTPLEEIFLKVTEDSTESHDLPLHPRAAGASRQAQD
B3: N1160 (aa 1-1160) N-terminal truncated version of ABCA4 with an HA tag at its C-terminus (protein, not shown: small tags and cut ends)
chain: MGFVRQIQLLLWKNWTLRKRQKIRFVVELVWPLSLFLVLIWLRNANPLYSHHECHFPNKAMPSAGMLPWLQGIFCNVNNPCFQSPTPGESPGIVSNYNNSILARVYRDFQELLMNAPESQHLGRIWTELHILSQFMDTLRTHPERIAGRGIRIRDILKDEETLTLFLIKNIGLSDSVVYLLINSQVRPEQFAHGVPDLALKDIACSEALLERFIIFSQRRGAKTVRYALCSLSQGTLQWIEDTLYANVDFFKLFRVLPTLLDSRSQGINLRSWGGILSDMSPRIQEFIHRPSMQDLLWVTRPLMQNGGPETFTKLMGILSDLLCGYPEGGGSRVLSFNWYEDNNYKAFLGIDSTRKDPIYSYDRRTTSFCNALIQSLESNPLTKIAWRAAKPLLMGKILYTPDSPAARRILKNANSTFEELEHVRKLVKAWEEVGPQIWYFFDNSTQMNMIRDTLGNPTVKDFLNRQLGEEGITAEAILNFLYKGPRESQADDMANFDWRDIFNITDRTLRLVNQYLECLVLDKFESYNDETQLTQRALSLLEENMFWAGVVFPDMYPWTSSLPPHVKYKIRMDIDVVEKTNKIKDRYWDSGPRADPVEDFRYIWGGFAYLQDMVEQGITRSQVQAEAPVGIYLQQMPYPCFVDDSFMIILNRCFPIFMVLAWIYSVSMTVKSIVLEKELRLKETLKNQGVSNAVIWCTWFLDSFSIMSMSIFLLTIFIMHGRILHYSDPFILFLFLLAFSTATIMLCFLLSTFFSKASLAAACSGVIYFTLYLPHILCFAWQDRMTAELKKAVSLLSPVAFGFGTEYLVRFEEQGLGLQWSNIGNSPTEGDEFSFLLSMQMMLLDAAVYGLLAWYLDQVFPGDYGTPLPWYFLLQESYWLGGEGCSTREERALEKTEPLTEETEDPEHPEGIHDSFFEREHPGWVPGVCVKNLVKIFEPCGRPAVDRLNITFYENQITAFLGHNGAGKTTTLSILTGLLPPTSGTVLVGGRDIETSLDAVRQSLGMCPQHNILFHHLTVAEHMLFYAQLKGKSQEEAQLEMEAMLEDTGLHHKRNEEAQDLSGGMQRKLSVAIAFVGDAKVVILDEPTSGVDPYSRRSIWDLLLKYRSGRTIIMSTHHMDEADLLGDRIAIIAQGRLYCSGTPLFLKNCFGTGLYLTLV

What was measured:
[1] = target: T1, C-terminal truncated version (aa 1348-2273) of ABCA4 with a Flag tag at its C-terminus (human); test: co-immunoprecipitation: flag antibody beads, HA western blot, HEK293 lysate
[2] = substrate: T2, C* (aa 1-20, 1369-2273) C-terminal truncated version of ABCA4 with a Flag tag at its C-terminus (human) (UniProt P78363); test: as above
T2 sequence: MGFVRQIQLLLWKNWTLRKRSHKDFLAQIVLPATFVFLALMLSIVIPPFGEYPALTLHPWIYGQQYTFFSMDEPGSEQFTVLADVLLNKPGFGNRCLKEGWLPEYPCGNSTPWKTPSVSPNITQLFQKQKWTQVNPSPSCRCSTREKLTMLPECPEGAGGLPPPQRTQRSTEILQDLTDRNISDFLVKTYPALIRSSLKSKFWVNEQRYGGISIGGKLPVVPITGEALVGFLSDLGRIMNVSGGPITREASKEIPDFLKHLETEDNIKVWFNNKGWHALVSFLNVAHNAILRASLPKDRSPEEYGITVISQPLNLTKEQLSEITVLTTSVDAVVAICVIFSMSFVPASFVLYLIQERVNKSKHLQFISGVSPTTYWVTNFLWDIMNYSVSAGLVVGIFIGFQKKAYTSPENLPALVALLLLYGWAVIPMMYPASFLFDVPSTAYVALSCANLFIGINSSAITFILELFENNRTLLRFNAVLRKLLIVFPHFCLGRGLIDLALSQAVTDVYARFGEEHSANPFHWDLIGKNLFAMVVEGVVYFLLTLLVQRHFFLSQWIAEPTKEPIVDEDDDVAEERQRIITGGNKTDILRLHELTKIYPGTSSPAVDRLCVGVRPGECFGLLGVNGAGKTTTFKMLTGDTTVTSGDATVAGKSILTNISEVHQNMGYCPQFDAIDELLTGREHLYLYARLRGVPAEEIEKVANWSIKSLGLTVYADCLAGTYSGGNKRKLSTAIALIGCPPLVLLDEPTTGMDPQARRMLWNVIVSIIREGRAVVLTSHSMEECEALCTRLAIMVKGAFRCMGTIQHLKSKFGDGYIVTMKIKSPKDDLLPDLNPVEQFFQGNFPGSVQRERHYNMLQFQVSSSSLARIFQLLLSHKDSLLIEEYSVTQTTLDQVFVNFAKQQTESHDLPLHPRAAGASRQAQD

Binder	binding [1]	binding [2]
B1	binds	–
B2	binds	binds
B3	binds	–
